These are yes or no findings as the source states them, for the method shown. In cells and extracts the contact can be indirect. Some results given as binding are weak or reduced against the parent protein; the word gives no strength.
What was measured:
[1] = biological target: AMPAR complex (Gria1–4) (mouse (endogenous in hippocampus and cerebellum)) (UniProt P23818+P23819+Q9Z2W9+Q9Z2W8); assay: cross-linking; 1 mM DSSO, 1 hour at room temperature, on freshly isolated synaptosomes and microsomes from mouse hippocampus and cerebellum; Lys-Lys cross-links identified by mass spectrometry (XlinkX v2.0, 2% FDR)
[2] = biological target: Stx1b (mouse (endogenous in hippocampus and cerebellum)) (UniProt P61264); assay: as above

Protein sequences, listed by entry. Tags and fused reporters are not part of them. Lines headed by an entry give the natural chain unless they say otherwise; changes in a name come on top. Residues count along the entry.
UniProt P23818: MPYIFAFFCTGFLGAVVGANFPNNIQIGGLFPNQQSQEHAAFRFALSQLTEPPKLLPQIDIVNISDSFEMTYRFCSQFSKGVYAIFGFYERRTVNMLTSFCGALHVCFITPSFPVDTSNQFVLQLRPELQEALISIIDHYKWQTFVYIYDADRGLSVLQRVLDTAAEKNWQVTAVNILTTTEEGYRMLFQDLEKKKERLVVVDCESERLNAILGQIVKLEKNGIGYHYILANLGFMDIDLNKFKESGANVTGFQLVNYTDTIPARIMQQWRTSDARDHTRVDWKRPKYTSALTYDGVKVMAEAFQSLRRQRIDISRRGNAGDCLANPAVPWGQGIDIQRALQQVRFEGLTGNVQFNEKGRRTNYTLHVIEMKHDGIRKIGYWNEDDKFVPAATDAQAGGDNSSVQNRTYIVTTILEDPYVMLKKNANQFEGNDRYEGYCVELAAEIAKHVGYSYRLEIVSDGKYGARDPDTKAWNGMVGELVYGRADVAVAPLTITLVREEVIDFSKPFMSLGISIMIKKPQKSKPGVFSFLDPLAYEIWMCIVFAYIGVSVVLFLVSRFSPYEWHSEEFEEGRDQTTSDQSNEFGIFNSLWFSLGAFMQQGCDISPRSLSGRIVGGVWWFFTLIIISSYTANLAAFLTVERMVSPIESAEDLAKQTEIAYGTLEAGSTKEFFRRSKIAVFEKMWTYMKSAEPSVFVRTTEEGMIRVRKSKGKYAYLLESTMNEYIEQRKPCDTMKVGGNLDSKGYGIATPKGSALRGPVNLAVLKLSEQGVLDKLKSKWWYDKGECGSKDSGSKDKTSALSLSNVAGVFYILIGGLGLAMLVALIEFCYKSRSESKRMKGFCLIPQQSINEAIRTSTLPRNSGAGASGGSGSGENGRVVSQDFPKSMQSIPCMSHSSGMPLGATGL
UniProt P23819: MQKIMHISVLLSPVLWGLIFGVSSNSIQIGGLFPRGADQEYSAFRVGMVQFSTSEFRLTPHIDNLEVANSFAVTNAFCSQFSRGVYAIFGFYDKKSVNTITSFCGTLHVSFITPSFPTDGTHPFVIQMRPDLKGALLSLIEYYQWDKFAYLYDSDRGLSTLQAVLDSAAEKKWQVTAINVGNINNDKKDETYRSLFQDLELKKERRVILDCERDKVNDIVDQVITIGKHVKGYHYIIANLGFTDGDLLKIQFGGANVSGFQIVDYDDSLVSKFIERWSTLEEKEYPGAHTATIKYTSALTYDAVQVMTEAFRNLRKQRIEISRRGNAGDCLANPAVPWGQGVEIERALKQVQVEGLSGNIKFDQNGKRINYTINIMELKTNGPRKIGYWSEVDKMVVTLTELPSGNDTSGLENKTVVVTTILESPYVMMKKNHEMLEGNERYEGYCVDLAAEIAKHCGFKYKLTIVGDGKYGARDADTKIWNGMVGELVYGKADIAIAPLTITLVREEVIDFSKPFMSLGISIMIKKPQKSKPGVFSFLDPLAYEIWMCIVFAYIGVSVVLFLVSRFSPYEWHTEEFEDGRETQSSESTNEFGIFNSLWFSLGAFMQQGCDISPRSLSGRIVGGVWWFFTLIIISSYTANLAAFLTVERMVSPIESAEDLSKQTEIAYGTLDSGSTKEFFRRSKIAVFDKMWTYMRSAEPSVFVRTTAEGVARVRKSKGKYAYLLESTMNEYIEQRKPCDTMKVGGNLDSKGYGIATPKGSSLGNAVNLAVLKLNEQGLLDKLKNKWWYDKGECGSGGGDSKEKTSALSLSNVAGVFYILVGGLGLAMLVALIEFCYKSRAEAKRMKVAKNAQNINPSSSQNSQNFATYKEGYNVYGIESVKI
UniProt Q9Z2W9: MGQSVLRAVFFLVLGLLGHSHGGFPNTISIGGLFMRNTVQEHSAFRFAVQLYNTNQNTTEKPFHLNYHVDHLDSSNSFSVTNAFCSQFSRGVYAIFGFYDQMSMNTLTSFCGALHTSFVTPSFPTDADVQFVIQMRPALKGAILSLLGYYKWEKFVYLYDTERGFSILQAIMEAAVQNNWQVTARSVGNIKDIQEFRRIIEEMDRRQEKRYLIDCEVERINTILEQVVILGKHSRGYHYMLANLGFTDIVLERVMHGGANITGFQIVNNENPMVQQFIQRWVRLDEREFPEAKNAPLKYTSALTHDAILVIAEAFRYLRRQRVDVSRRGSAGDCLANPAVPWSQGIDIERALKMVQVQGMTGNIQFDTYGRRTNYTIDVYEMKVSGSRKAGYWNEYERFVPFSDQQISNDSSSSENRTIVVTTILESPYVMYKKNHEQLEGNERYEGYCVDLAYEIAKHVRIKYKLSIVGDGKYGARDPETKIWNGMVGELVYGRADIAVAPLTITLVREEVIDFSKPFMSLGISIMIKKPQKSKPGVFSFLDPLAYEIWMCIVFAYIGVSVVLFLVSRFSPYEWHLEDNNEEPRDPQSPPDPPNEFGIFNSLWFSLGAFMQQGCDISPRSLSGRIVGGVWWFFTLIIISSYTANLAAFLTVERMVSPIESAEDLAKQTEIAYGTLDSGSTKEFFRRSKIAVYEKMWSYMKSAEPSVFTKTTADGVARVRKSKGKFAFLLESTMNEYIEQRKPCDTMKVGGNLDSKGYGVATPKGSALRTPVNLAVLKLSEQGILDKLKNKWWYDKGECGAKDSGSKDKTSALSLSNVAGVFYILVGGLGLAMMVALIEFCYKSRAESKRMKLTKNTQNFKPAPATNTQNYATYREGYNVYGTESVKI
UniProt Q9Z2W8: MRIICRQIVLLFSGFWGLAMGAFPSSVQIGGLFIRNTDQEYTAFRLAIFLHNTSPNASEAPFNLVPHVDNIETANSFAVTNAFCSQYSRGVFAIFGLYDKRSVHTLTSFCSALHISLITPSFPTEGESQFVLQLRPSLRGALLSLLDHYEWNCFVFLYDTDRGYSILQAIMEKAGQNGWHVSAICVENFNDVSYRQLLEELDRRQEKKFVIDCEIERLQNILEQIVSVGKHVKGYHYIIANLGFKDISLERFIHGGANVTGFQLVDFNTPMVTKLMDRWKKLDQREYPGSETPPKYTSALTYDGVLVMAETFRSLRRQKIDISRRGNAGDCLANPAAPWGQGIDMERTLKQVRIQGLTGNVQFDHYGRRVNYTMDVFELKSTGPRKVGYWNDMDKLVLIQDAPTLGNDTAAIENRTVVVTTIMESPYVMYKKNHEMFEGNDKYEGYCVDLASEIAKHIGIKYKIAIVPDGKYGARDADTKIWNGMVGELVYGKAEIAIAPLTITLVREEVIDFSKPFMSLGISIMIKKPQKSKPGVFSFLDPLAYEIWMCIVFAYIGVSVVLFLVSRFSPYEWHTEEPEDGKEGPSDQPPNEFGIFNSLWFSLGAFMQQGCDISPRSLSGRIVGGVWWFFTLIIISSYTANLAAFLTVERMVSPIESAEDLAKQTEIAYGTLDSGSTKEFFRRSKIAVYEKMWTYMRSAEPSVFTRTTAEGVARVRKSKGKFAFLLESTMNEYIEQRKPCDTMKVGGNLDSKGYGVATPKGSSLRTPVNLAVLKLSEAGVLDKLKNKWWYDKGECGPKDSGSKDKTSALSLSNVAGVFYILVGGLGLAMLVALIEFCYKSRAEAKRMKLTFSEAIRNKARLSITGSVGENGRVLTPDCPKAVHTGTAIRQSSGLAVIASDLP
UniProt P61264: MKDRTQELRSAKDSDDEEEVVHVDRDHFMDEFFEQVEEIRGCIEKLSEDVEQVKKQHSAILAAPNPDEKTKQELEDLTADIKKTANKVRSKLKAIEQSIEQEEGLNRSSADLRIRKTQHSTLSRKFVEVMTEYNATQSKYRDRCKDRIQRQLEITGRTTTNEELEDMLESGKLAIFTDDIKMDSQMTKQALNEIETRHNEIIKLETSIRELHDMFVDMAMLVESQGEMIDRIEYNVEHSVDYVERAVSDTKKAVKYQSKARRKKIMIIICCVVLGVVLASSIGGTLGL
UniProt O88998, residues 17-485: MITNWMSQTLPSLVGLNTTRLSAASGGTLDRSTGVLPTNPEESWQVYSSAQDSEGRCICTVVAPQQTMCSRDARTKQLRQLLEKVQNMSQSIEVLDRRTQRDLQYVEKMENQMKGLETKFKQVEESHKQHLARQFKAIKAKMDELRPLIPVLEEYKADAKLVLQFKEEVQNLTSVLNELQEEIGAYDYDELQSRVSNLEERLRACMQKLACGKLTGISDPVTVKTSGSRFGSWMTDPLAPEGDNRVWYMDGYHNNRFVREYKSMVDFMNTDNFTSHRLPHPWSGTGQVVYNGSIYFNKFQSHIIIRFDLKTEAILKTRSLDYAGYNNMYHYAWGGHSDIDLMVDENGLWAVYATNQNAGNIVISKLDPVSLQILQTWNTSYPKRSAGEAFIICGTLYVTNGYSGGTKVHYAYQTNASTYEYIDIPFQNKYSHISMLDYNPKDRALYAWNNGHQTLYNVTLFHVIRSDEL
UniProt P60879: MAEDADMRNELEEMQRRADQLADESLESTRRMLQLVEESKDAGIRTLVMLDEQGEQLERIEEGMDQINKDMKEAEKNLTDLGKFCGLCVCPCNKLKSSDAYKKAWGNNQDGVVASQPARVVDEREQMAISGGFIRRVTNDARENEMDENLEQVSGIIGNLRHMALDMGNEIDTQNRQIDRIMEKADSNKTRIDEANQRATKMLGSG
UniProt O08599: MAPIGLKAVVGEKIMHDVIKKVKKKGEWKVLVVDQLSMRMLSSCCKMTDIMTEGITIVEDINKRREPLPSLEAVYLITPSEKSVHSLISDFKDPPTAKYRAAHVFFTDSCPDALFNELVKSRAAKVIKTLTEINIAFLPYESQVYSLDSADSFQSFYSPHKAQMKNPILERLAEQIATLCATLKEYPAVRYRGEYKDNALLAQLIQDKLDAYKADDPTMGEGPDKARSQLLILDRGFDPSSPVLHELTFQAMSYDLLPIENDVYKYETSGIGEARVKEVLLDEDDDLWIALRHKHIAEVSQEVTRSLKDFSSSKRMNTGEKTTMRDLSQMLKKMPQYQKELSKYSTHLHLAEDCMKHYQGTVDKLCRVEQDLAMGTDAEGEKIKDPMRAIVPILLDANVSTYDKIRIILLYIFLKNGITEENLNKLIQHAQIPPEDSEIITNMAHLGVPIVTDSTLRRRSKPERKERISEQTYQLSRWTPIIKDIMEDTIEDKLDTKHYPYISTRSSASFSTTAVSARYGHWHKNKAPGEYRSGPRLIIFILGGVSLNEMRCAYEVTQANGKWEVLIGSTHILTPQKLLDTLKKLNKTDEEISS

Substance | binding [1] | binding [2]
Olfm1 (from UniProt O88998 17-485) | binds | –
Snap25 (from UniProt P60879 1-206) | – | binds
Stxbp1 (from UniProt O08599 1-594) | – | binds

Source: paper PMC7030922
